Data reported in publication PMC3288074, “Structural and Functional Analysis of Validoxylamine A 7′-phosphate Synthase ValL Involved in Validamycin A Biosynthesis” (PLoS ONE, 2012).
No constants are given. Whether binding was seen depends on the method and setting. Some entries that bind do so weakly or less than the wild type.

Molecular target: Validoxylamine A 7'-phosphate synthase ValL (Streptomyces hygroscopicus var. jinggangensis 5008) (UniProt H2K885)
Test: crystal structure; hanging-drop vapour diffusion, 10 mg/mL protein, 30% PEG 4000, 200 mM MgCl2, 100 mM Tris-HCl pH 8.5, 20°C; two molecules in the asymmetric unit; both purified

binding: binds
B1: Validoxylamine A 7'-phosphate synthase ValL (enzyme)
chain: TGSEIFLASKRAAITYDTDPATGEPRAWLAPGGTGNVVAEQAGVLNISWIASADSEDDRRASALNPDGVTMELHSGREILVRLIRHDPAVFRNVQNFMTANLMWAANNYGWDRWTQPSFGSDAREGWADFGRFTRDFADAILKSSAQSADPVYLVHDYQLVGVPALLREQRPDAPILLFVHIPWPSADYWRILPKEIRTGILHGMLPATTIGFFADRWCRNFLESVADLLPDARIDREAMTVEWRGHRTRLRTMPLGYSPLTLDGRNPQLPEGIEEWADGHRLVVHSGRTDPIKNAERAVRAFVLAARGGGLEKTRMLVRMNPNRLYVPANADYVHRVETAVAEANAELGSDTVRIDNDNDVNHTIACFRRADLLIFNSTVDGQNLSTFEAPLVNERDADVILSETCGAAEVLGEYCRSVNPFDLVEQAEAISAALAAGPRQRAEAAARRRDAARPWTLEAWVQAQLDGLAADHAARTATAERFDTAPAVSTRADL
notes: ValL, validoxylamine A 7'-phosphate synthase of the validamycin A gene cluster of Streptomyces hygroscopicus var. jinggangensis 5008; the encoded protein has 497 aa; gene valL cloned into pET28a between EcoRI and BamHI sites; Removal of the tag is not mentioned; The ValL/trehalose structure (3T7D) was obtained from selenomethionine-labelled ValL; the apo structure (3T5T) from native ValL; also …
